Source: patent publication US6358998B1, “Body fat-reducing agent comprising dioxabicyclo[3.3.0] octane derivative as active ingredient” (Rinoru Oil Mills Co., LTD, priority 1999, dated 2002)

Assay: Example 2: three-week feeding of experimental diet to rats, food intake and weight gain
Type: in vivo, rat
Details: Sprague-Dawley male rats, diet fed freely for three weeks, 0.2% sesamin (+1.0% CLA)

c1cc2c(cc1[C@H]1OC[C@H]3[C@@H]1CO[C@@H]3c1ccc3c(c1)OCO3)OCO2 [Sesamin, sesamin]
Food intake: 25.3 g/day
Weight gain: 8.22 g/day
